Data published in publication PMC12087225.
No constants are given. Whether binding was seen depends on the method and setting. In cells and extracts the contact can be indirect. Some results given as binding are weak or reduced against the parent protein; the word gives no strength.

Amino acid sequences for entries named in this document (tags omitted).
UniProt Q9QVP9: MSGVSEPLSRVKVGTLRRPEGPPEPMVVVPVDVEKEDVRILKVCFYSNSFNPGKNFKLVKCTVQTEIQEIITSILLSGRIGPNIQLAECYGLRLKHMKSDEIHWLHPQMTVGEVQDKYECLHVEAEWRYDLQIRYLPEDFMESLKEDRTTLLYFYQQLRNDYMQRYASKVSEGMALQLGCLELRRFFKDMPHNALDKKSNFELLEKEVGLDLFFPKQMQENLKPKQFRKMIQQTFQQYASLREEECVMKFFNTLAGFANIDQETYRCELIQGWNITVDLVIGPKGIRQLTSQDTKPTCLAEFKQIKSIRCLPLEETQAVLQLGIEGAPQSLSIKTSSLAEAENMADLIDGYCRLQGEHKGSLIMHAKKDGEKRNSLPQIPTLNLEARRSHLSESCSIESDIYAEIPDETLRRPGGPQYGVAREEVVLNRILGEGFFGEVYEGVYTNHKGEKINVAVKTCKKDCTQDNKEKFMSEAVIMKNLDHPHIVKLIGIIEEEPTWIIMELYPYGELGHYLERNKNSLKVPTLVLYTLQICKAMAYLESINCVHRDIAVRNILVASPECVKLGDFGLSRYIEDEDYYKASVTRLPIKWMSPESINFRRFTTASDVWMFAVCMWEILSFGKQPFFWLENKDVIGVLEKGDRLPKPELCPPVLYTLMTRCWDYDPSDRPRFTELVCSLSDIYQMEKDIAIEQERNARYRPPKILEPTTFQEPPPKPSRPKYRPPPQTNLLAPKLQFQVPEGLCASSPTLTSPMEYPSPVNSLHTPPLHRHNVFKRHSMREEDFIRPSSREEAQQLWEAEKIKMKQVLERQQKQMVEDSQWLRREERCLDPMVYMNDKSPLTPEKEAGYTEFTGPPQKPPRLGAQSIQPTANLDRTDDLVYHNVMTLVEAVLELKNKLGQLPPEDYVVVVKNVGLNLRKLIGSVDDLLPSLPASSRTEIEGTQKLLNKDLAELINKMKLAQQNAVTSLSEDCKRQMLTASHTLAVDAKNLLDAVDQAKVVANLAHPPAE
UniProt Q05397: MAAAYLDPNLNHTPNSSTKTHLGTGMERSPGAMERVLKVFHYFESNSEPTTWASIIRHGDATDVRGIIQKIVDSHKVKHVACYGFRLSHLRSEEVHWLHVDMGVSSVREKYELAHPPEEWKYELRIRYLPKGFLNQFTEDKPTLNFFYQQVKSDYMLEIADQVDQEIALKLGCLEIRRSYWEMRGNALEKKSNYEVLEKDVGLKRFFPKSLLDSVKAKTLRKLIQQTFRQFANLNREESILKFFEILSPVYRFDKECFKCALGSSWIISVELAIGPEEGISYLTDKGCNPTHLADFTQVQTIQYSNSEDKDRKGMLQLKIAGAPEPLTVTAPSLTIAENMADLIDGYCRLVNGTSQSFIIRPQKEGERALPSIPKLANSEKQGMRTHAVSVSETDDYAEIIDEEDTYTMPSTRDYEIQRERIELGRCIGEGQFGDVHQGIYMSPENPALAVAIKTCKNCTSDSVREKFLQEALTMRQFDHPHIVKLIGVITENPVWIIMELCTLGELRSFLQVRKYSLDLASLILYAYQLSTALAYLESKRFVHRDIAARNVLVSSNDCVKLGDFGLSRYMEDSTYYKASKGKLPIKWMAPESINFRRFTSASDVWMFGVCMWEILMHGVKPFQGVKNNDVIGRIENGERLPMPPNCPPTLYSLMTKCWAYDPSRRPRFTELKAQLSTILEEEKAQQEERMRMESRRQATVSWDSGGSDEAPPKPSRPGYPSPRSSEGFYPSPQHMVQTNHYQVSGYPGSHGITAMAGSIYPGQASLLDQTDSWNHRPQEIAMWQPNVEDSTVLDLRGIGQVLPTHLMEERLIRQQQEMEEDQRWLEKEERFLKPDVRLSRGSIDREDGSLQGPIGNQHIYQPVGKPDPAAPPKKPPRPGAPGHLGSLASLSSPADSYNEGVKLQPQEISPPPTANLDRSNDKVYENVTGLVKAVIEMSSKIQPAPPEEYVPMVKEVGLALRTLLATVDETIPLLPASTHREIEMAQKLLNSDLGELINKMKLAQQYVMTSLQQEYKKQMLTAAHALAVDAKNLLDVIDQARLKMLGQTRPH
UniProt Q14289: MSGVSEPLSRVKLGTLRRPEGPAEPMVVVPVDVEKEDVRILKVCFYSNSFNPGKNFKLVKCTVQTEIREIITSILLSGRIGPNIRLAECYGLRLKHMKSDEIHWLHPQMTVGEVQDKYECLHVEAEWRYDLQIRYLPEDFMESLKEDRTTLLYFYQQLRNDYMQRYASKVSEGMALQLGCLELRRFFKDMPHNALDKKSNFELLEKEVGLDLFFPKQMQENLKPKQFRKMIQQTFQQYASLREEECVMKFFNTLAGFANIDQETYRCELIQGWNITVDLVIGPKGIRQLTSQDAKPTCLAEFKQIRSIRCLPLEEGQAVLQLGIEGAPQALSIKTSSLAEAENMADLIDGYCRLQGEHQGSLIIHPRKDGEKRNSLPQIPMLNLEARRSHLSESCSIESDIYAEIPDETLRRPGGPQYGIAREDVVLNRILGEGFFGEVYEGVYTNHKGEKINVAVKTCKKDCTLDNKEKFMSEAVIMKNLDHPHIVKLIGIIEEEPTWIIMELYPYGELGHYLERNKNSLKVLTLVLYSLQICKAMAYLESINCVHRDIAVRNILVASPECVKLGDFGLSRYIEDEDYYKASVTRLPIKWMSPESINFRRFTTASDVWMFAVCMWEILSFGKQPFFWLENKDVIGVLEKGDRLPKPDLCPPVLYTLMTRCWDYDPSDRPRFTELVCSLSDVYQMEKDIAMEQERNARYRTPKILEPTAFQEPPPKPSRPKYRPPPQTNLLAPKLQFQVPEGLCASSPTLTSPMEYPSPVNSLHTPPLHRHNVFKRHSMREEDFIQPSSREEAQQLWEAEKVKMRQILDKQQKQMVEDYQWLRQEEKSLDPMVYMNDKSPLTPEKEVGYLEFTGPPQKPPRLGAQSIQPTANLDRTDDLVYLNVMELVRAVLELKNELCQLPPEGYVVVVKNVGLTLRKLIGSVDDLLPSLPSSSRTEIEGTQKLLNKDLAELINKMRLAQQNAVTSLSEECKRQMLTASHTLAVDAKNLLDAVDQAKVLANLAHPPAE

Experiments:
[1] = target: GFP fused LD2-LD4 peptide (LD2 and LD4 motifs of Paxillin), expressed in FAK null fibroblasts (UniProt P49024); assay: co-IP; GFP-Trap agarose beads on RIPA lysates (20 mM Tris pH 7.5, 150 mM NaCl, 1% NP40) of doxycycline-induced and uninduced FAK null cells, 1.5 h at 4 °C; blotted for PYK2 and GFP
[2] = target: GFP fused LD2-LD4 peptide (LD2 and LD4 motifs of Paxillin), expressed in MDA231-LM2-4175 cells (UniProt P49024); assay: co-IP; GFP-Trap agarose beads on RIPA lysates (20 mM Tris pH 7.5, 150 mM NaCl, 1% NP40) of doxycycline-induced and uninduced LM2-LD2-LD4 cells, 1.5 h at 4 °C; blotted for PYK2, FAK and GFP

Substance | binding [1] | binding [2]
PYK2, endogenous in FAK null fibroblasts (from UniProt Q9QVP9 1-1009) | binds | 
Focal Adhesion Kinase (FAK), endogenous in MDA231-LM2-4175 cells (from UniProt Q05397 1-1052) |  | binds
PYK2, endogenous in MDA231-LM2-4175 cells (from UniProt Q14289 1-1009) |  | binds
